In doi:10.1101/2023.08.05.550684:
These are yes or no findings as the source states them, for the method shown. Some entries that bind do so weakly or less than the wild type. Sequences can lack the tags named with a protein.

Molecular target: T1, Saccharomyces cerevisiae PCS60 (ScPCS60) (S. cerevisiae) (UniProt P38137)
T1 sequence: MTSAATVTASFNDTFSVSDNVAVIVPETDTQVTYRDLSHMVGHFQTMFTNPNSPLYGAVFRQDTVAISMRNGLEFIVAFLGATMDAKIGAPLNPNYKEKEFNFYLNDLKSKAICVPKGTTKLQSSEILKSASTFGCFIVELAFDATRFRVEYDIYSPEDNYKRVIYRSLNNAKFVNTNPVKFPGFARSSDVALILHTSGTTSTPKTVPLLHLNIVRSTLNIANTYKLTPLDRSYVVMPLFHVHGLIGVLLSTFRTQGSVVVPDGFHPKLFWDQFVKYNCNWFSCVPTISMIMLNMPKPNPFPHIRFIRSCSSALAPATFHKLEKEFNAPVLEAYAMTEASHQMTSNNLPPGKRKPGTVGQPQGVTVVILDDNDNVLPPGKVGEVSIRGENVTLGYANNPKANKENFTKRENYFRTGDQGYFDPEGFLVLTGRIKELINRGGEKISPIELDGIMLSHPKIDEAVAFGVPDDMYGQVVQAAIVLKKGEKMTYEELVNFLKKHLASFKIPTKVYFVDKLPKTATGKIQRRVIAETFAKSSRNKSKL
Experiment: two-hybrid

binding: binds
B1: Saccharomyces cerevisiae PEX5 (ScPEX5) (protein, UniProt P35056 1-612)
chain: MDVGSCSVGNNPLAQLHKHTQQNKSLQFNQKNNGRLNESPLQGTNKPGISEAFISNVNAISQENMANMQRFINGEPLIDDKRRMEIGPSSGRLPPFSNVHSLQTSANPTQIKGVNDISHWSQEFQGSNSIQNRNADTGNSEKAWQRGSTTASSRFQYPNTMMNNYAYASMNSLSGSRLQSPAFMNQQQSGRSKEGVNEQEQQPWTDQFEKLEKEVSENLDINDEIEKEENVSEVEQNKPETVEKEEGVYGDQYQSDFQEVWDSIHKDAEEVLPSELVNDDLNLGEDYLKYLGGRVNGNIEYAFQSNNEYFNNPNAYKIGCLLMENGAKLSEAALAFEAAVKEKPDHVDAWLRLGLVQTQNEKELNGISALEECLKLDPKNLEAMKTLAISYINEGYDMSAFTMLDKWAETKYPEIWSRIKQQDDKFQKEKGFTHIDMNAHITKQFLQLANNLSTIDPEIQLCLGLLFYTKDDFDKTIDCFESALRVNPNDELMWNRLGASLANSNRSEEAIQAYHRALQLKPSFVRARYNLAVSSMNIGCFKEAAGYLLSVLSMHEVNTNNKKGDVGSLLNTYNDTVIETLKRVFIAMNRDDLLQEVKPGMDLKRFKGEFSF
